From PMC3541133

The chains behind the UniProt entries cited, without tags or fusion partners.
UniProt P78362: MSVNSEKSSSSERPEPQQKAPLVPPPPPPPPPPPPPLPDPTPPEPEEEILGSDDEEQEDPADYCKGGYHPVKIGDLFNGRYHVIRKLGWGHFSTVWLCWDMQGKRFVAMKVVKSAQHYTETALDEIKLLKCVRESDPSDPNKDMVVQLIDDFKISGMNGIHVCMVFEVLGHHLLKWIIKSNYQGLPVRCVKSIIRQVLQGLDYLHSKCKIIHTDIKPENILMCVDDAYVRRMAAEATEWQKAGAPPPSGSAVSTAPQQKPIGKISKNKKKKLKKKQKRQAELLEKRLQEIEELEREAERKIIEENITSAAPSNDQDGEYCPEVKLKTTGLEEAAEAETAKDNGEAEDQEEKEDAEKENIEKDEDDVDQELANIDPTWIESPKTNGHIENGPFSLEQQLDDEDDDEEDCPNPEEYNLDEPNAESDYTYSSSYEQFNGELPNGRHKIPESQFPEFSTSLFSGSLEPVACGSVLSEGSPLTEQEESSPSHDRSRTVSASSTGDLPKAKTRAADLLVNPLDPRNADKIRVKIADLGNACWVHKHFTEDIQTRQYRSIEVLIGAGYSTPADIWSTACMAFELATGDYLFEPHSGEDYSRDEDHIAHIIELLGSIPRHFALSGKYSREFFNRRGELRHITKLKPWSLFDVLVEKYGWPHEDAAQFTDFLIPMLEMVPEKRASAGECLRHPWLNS

Biological target: T1, FLAG-HA-BLRF2 (Epstein-Barr virus) (UniProt P03197)
T1 sequence: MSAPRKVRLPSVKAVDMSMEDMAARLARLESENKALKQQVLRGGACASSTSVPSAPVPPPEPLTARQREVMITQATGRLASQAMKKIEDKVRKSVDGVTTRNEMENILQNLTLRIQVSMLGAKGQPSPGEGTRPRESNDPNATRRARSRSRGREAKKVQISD
Assay: affinity purification with mass spectrometry; tandem affinity purification (anti-FLAG M2 agarose and FLAG peptide, then anti-HA agarose and HA peptide) from the S2 fraction (cytosol removed with digitonin, NP-40 lysis) of FLAG-HA-BLRF2 P3HR1-ZHT cells induced with 4HT for 72 hours; FLAG-HA-GFP cells as background control; LC-MS/MS

SRPK2 (endogenous, P3HR1-ZHT cells) (from UniProt P78362 1-688) (enzyme)
binding: binds

Results are given in words; binding and its absence hold for the method and conditions named. Binding seen in cells or lysates may run through a third protein. These calls come from enrichment with a bait or labelling near it, and not all partners need be listed. Sequences can lack the tags named with a protein.
